{"source": "PubChem BioAssay AID324", "about": "(DTP/NCI, 2004)", "system": "CD2F1 mice, AMSA-resistant P388 leukemia ip, median survival T/C", "assay": "NCI In Vivo Anticancer Drug Screen. Data for tumor model P388 Leukemia resistant to AMSA; NSC 249992 (intraperitoneal) in CD2F1 (CDF1) mice", "settings": "T/C endpoint: median survival time, higher T/C = longer survival", "experimental": "The antitumor activity of compounds was measured in mice bearing transplantable tumors. Survival or tumor size were measured and the results are expressed as the measurement made in the treated group (T) divided by the measurement made in the vehicle treated control group (C). The tumor model used in this assay is P388 Leukemia resistant to AMSA; NSC 249992 (intraperitoneal) in CD2F1 (CDF1) mice", "note": "The list shows only some results of the screen, not a fair sample: it is rich in T/C values a quarter to a half above the control, in often repeated tests (any T/C) and in doses without a T/C. Further doses and runs are listed elsewhere. T/C gives the treated animals as a percentage of the vehicle group. Some entries give survivors of the animals treated and no T/C: the source files T/C as zero there, which appears to mark a toxic dose or a test without result, not a measured value. Some doses without a T/C left all or most animals alive at the check, yet need not have been tolerated: survival well below the control is almost never listed, so the zero probably covers shortened survival too. Counts of survivors are from the toxicity check (mostly the fifth day) where no day follows; animals may have died later. Schedules are NCI's codes, taken here to give the interval after Q, in days (D) or hours (H), and the number of doses after X. Where survival is the endpoint, the PubChem record calls one and a half times the control and up active, and a quarter to a half above the control has no call in these data; cut-offs in other NCI protocols can differ. Some T/C values are followed by the survivors on the day toxicity was checked, most often the fifth; where none is given, no animal had died by that day. Starred links: 1 amine or outer side, 2 acyl side, 3 side chain; linkers in the order of their positions; H or OH if unused. Positions of bridges follow the written chain, without caps; N, C: chain ends. Non-standard residues stand in square brackets, D forms with d. Residues, ends and D or L forms follow the SMILES beside them. Chains are numbered I, II in the order given. Actinocin(9to1) = Cc1c2oc3c(C)ccc(C(=O)[*:1])c3nc-2c(C(=O)[*:2])c(N)c1=O; aThr = C[C@H](O)[C@H](N)C(=O)O; NMeV = CN[C@H](C(=O)O)C(C)C; Sar = CNCC(=O)O"}
{"smiles": "c1ccc2c(NCCCCCCNc3c4ccccc4nc4ccccc34)c3ccccc3nc2c1", "values": [{"measurement": "T/C", "setting": "dose: 2.16 mg/kg/injection, schedule: Q01DX009 (ip), vehicle: Klucel (hydroxypropylcellulose) (HPC)", "value": "144 % of control"}, {"measurement": "T/C", "setting": "dose: 2.16 mg/kg/injection, schedule: Q01DX009 (ip), vehicle: lactic acid", "value": "135 % of control [7 of 8 alive]"}, {"measurement": "T/C", "setting": "dose: 3.24 mg/kg/injection, schedule: Q01DX009 (ip), vehicle: other", "value": "132 % of control"}, {"measurement": "T/C", "setting": "dose: 3.6 mg/kg/injection, schedule: Q01DX009 (ip), vehicle: Klucel (hydroxypropylcellulose) (HPC)", "value": "148 % of control"}, {"measurement": "T/C", "setting": "dose: 3.6 mg/kg/injection, schedule: Q01DX009 (ip), vehicle: lactic acid", "value": "130 % of control"}, {"measurement": "T/C", "setting": "dose: 5.1 mg/kg/injection, schedule: Q01DX009 (ip), vehicle: other", "value": "130 % of control"}, {"measurement": "T/C", "setting": "dose: 6.0 mg/kg/injection, schedule: Q01DX009 (ip), vehicle: Klucel (hydroxypropylcellulose) (HPC)", "value": "144 % of control"}, {"measurement": "survivor count", "setting": "dose: 6.0 mg/kg/injection, schedule: Q01DX009 (ip), vehicle: lactic acid", "value": "3 of 8"}, {"measurement": "T/C", "setting": "dose: 9.0 mg/kg/injection, schedule: Q01DX009 (ip), vehicle: other", "value": "134 % of control"}, {"measurement": "survivor count", "setting": "dose: 10.0 mg/kg/injection, schedule: Q01DX009 (ip), vehicle: lactic acid", "value": "0 of 8"}, {"measurement": "survivor count", "setting": "dose: 12.0 mg/kg/injection, schedule: Q04DX003 (ip), vehicle: other", "value": "7 of 8"}, {"measurement": "T/C", "setting": "dose: 15.0 mg/kg/injection, schedule: Q01DX009 (ip), vehicle: other", "value": "138 % of control"}, {"measurement": "survivor count", "setting": "dose: 16.7 mg/kg/injection, schedule: Q01DX009 (ip), vehicle: Klucel (hydroxypropylcellulose) (HPC)", "value": "2 of 8"}, {"measurement": "survivor count", "setting": "dose: 16.7 mg/kg/injection, schedule: Q01DX009 (ip), vehicle: lactic acid", "value": "0 of 8"}, {"measurement": "survivor count", "setting": "dose: 20.0 mg/kg/injection, schedule: Q04DX003 (ip), vehicle: other", "value": "6 of 8"}, {"measurement": "survivor count", "setting": "dose: 21.6 mg/kg/injection, schedule: Q01DX001 (ip), vehicle: water", "value": "1 of 8"}, {"measurement": "survivor count", "setting": "dose: 36.0 mg/kg/injection, schedule: Q01DX001 (ip), vehicle: water", "value": "1 of 8"}, {"measurement": "survivor count", "setting": "dose: 60.0 mg/kg/injection, schedule: Q01DX001 (ip), vehicle: water", "value": "0 of 8"}]}
{"smiles": "C[n+]1ccc(Nc2ccc(NC(=O)c3ccc(Nc4cc[n+](C)c5ccc(N)cc45)cc3)cc2)cc1", "values": [{"measurement": "T/C", "setting": "dose: 2.88 mg/kg/injection, schedule: Q04DX003 (ip), vehicle: water", "value": "147 % of control"}, {"measurement": "survivor count", "setting": "dose: 13.3 mg/kg/injection, schedule: Q04DX003 (ip), vehicle: water", "value": "6 of 8"}]}
{"smiles": "Cc1c2oc3c(C)ccc(C(=O)N[C@@H]4C(=O)N[C@H](C(C)C)C(=O)N5CCC[C@H]5C(=O)N(C)CC(=O)N(C)[C@@H](C(C)C)C(=O)O[C@H]4C)c3nc-2c(C(=O)N[C@@H]2C(=O)N[C@H](C(C)C)C(=O)N3CCC[C@H]3C(=O)N(C)CC(=O)N(C)[C@@H](C(C)C)C(=O)O[C@H]2C)c(N)c1=O", "note": "(I: [aThr][dV]P[Sar][NMeV] / II: [aThr][dV]P[Sar][NMeV]; ester I:1-I:C, II:1-II:C; linker I:N-II:N via Actinocin(9to1))", "values": [{"measurement": "T/C", "setting": "dose: 0.06 mg/kg/injection, schedule: Q04DX003 (ip), vehicle: saline + alcohol", "value": "131 % of control"}, {"measurement": "T/C", "setting": "dose: 0.11 mg/kg/injection, schedule: Q04DX003 (ip), vehicle: saline + alcohol", "value": "147 % of control [7 of 8 alive]"}, {"measurement": "survivor count", "setting": "dose: 0.22 mg/kg/injection, schedule: Q04DX003 (ip), vehicle: saline + alcohol", "value": "5 of 8"}, {"measurement": "survivor count", "setting": "dose: 0.36 mg/kg/injection, schedule: Q04DX003 (ip), vehicle: saline + alcohol", "value": "8 of 8"}, {"measurement": "survivor count", "setting": "dose: 0.6 mg/kg/injection, schedule: Q04DX003 (ip), vehicle: saline + alcohol", "value": "1 of 8"}]}
{"smiles": "CO[C@H]1C[C@](C)(O)Cc2cc3c(c(O)c21)C(=O)c1c(O)cc2c(c1C3=O)O[C@@H]1O[C@@]2(C)[C@H](O)[C@@H](N(C)C)[C@@H]1O", "values": [{"measurement": "survivor count", "setting": "dose: 50.0 mg/kg/injection, schedule: Q04DX003 (ip), vehicle: other", "value": "8 of 8"}]}
{"smiles": "CCCCC(=O)OCC(=O)[C@]1(O)Cc2c(O)c3c(c(O)c2[C@@H](OC2CC(NC(=O)C(F)(F)F)C(O)C(C)O2)C1)C(=O)c1c(OC)cccc1C3=O", "note": "(some centres not stated)", "values": [{"measurement": "survivor count", "setting": "dose: 150.0 mg/kg/injection, schedule: Q04DX003 (ip), vehicle: clinical formulation", "value": "8 of 8"}]}
